Converted amounts (≈) assume the structure as drawn.
Tests used:
Cytochrome P450 2C19 = Cytochrome P450 2C19 (Homo sapiens, UniProt P33261); assay: Inhibition of CYP2C19 in human liver microsomes using S-mephenytoin as substrate preincubated for 10 mins followed by NADPH addition and measured after 15 mins by LC-MS/MS analysis
physchem [1] = settings: simulated gi fluid, pH 6.8
physchem [2] = settings: simulated gi fluid, pH 1.2
physchem [3] = settings: buffer

Protein sequences, listed by entry. Tags and fused reporters are not part of them.
UniProt P33261, whole entry: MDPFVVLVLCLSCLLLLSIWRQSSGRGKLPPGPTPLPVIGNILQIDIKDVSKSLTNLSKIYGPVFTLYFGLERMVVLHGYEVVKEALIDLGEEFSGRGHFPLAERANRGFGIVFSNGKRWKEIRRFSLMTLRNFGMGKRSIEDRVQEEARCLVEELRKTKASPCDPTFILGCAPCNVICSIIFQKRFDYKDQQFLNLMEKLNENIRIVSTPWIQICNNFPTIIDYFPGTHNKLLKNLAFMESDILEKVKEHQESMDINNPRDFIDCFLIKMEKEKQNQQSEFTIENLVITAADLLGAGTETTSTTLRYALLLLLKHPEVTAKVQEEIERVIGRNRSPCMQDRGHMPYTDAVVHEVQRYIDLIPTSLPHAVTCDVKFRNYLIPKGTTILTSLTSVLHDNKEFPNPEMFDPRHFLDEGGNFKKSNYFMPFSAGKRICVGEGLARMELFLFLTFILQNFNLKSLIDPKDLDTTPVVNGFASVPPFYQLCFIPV

| Structure (SMILES) | IC50 (Cytochrome P450 2C19) | solubility thermodynamic at 24 h (physchem [1]) | solubility thermodynamic at 24 h (physchem [2]) | solubility thermodynamic at 24 h (physchem [3]) |
| --- | --- | --- | --- | --- |
| N#Cc1cc2c(nc1N1CCC(C(=O)NS(=O)(=O)Cc3ccccc3)CC1)COC2=O | > 25 µM | – | – | – |
| Cc1ccc(CS(=O)(=O)NC(=O)C2(C)CCN(c3nc4c(cc3C#N)C(=O)OC4)CC2)cc1 | 50 µM | 90.9 µM (≈ 42.6 µg/mL) | 4 µM (≈ 1.87 µg/mL) | 54.2 µM (≈ 25.4 µg/mL) |
